1 sequence from patent publication US8193154B2 (The Board of Trustees of the Leland Stanford Junior …, priority 2007, dated 2012) can be followed below.

End groups of sequences in plain letters are not given here.

This data set is described as follows: peptide made by a vendor. The following applies: whole synthesis.

YRSRKYSSWY: the “purity (crude or final not stated)” value was “purity 94%”.
